Test results taken from patent publication US10835513B2, “Methods and treatments for the learning and memory deficits associated with Noonan syndrome” (The Regents of the University of California, priority 2013, dated 2020).

Test system: Ptpn11^D61G/+ mice
Experiment: Morris water maze (hidden platform) in Ptpn11^D61G/+ mice treated with lovastatin
Type: in vivo
Settings: lovastatin 10 mg/kg s.c.
Experimental: FIG. 6 are graphs showing that Lovastatin treatment reverses spatial learning and memory and LTP deficits in Ptpn11^D61G/+ mice. […] Left, Representative immunoblot showing p-Erk (upper) and total Erk (lower) levels in Ptpn11^D61G/+ mice and WT. Hippocampi were dissected 6 hr after the 4th day of lovastatin injection (subcutaneous (s.c.) injections, 10 mg/kg). Right, Bar graph displaying normalized p-Erk levels (mean±s.e.m.). n=7-8 per group. t-test, *P<0.05. […] Two-way ANOVA followed by Bonferroni post-test, WT/Veh vs. Ptpn11^D61G/+/Veh, *P<0.05, **P<0.01; Ptpn11^D61G/+/Veh vs. Ptpn11^D61G/+/Lova, +P<0.05. […] Two-way ANOVA with genotype as between-subjects factor and drug treatment as within-subjects factor, effect of genotype: F(1, 45)=19.79, ***P<0.0001, interaction: F (1,45)=0.4489, P=0.506.
SL327 (Tocris) was dissolved in DMSO (16 mg/ml) and was injected intraperitoneally once daily, 30 min before the water maze experiment at a dose of 32 mg/kg. The volume of a single injection was under 80 μl. Lovastatin (Mevinolin, Sigma) was prepared as previously described^21. […]
In the hidden platform-version of Morris water maze, mice were trained with two blocks of 2 trials (ITI=1 min) spaced about 45 min apart. […] Memory was assessed in probe trials that were given after completion of training as described in the main text. […] Data were acquired and analyzed using WaterMaze software (Actimetrics).

CC[C@H](C)C(=O)O[C@H]1C[C@@H](C)C=C2C=C[C@H](C)[C@H](CC[C@@H]3C[C@@H](O)CC(=O)O3)[C@H]21 [Lovastatin]
swimming speed (Ptpn11^D61G/+ (D61G) mice): 14.2 ± 1.1 cm/s | swimming speed (WT mice): 17.9 ± 0.8 cm/s
